Earlier results as cited in patent US20220378780A1, “PHARMACEUTICAL COMPOSITIONS COMPRISING POH DERIVATIVES” (NeOnc Technologies, Inc., priority 2019, published 2022).
Values joined by “and” are separate entries in the source; they are usually repeats but may differ in a detail not shown here. Equal entries are not always repeated. At least one compound was matched to its structure with a doubt left.

System: advanced-stage CTCL patients
Details: cited from earlier work

Cn1nnc2c(C(N)=O)ncn2c1=O [TMZ, temozolomide, reference compound]
clinical activity (four MF patients with CNS involvement): moderate activity | response rate (oral TMZ, Phase II trials, heavily pre-treated advanced-stage CTCL): 33% and 27%
